Measurements reported in article PMC3264577, “RINL, Guanine Nucleotide Exchange Factor Rab5-Subfamily, Is Involved in the EphA8-Degradation Pathway with Odin” (PLoS ONE, 2012).
These are yes or no findings as the source states them, for the method shown. Binding seen in cells or lysates may run through a third protein. Some results given as binding are weak or reduced against the parent protein; the word gives no strength. For part of these data: Where a sequence is shown, tags or fusion partners need not be part of it.

T1: FLAG-RIN2 (UniProt Q8WYP3)
T1 sequence: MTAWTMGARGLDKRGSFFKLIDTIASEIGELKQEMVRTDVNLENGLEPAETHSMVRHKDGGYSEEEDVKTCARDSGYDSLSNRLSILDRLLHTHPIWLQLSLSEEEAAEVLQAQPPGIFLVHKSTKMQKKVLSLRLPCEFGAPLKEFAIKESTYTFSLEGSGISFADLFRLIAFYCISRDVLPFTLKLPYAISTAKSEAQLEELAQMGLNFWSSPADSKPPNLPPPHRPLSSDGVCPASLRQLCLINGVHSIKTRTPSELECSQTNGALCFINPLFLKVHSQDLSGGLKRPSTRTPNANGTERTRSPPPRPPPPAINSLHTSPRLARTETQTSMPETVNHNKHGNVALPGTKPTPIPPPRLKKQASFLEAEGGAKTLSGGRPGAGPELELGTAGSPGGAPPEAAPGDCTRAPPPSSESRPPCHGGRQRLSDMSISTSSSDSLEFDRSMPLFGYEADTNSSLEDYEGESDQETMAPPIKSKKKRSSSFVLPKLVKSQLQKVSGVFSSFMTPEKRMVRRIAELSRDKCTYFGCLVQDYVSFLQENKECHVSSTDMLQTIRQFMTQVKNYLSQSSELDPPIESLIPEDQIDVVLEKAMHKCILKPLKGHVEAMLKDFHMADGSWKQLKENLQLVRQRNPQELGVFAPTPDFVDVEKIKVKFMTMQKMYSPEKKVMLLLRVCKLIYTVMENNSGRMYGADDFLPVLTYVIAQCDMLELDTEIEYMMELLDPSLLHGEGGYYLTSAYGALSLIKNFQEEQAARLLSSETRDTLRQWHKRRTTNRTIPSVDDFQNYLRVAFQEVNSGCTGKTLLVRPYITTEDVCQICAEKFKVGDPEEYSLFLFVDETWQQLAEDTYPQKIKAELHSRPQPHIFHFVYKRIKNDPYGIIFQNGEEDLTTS

T2: FLAG-RIN3 (UniProt Q8TB24)
T2 sequence: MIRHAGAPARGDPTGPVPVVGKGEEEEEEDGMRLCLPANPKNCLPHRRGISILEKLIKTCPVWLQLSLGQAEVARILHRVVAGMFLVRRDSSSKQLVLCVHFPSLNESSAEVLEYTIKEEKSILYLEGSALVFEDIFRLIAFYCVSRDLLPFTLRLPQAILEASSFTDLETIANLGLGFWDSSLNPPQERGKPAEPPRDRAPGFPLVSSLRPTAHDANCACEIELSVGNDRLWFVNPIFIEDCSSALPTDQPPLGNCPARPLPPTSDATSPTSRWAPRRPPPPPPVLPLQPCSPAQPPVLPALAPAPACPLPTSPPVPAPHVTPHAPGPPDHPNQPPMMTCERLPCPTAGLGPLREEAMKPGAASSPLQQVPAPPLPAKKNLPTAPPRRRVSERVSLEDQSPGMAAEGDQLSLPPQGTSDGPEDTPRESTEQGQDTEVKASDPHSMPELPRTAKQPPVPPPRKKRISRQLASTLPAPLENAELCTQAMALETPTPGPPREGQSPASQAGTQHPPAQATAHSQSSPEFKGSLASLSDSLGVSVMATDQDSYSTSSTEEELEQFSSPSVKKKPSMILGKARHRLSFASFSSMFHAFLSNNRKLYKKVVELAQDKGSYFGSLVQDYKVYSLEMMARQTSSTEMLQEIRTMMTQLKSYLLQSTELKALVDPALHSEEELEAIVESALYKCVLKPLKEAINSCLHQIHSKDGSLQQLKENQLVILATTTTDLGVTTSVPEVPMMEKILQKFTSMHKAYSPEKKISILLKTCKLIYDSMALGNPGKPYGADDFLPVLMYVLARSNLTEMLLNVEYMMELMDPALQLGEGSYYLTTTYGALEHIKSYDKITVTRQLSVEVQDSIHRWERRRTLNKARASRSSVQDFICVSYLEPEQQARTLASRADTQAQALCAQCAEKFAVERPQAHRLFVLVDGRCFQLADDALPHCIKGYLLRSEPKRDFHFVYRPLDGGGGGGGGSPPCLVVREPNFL

T3: endogenous odin (HeLa) (human (endogenous in HeLa)) (UniProt Q92625)
T3 sequence: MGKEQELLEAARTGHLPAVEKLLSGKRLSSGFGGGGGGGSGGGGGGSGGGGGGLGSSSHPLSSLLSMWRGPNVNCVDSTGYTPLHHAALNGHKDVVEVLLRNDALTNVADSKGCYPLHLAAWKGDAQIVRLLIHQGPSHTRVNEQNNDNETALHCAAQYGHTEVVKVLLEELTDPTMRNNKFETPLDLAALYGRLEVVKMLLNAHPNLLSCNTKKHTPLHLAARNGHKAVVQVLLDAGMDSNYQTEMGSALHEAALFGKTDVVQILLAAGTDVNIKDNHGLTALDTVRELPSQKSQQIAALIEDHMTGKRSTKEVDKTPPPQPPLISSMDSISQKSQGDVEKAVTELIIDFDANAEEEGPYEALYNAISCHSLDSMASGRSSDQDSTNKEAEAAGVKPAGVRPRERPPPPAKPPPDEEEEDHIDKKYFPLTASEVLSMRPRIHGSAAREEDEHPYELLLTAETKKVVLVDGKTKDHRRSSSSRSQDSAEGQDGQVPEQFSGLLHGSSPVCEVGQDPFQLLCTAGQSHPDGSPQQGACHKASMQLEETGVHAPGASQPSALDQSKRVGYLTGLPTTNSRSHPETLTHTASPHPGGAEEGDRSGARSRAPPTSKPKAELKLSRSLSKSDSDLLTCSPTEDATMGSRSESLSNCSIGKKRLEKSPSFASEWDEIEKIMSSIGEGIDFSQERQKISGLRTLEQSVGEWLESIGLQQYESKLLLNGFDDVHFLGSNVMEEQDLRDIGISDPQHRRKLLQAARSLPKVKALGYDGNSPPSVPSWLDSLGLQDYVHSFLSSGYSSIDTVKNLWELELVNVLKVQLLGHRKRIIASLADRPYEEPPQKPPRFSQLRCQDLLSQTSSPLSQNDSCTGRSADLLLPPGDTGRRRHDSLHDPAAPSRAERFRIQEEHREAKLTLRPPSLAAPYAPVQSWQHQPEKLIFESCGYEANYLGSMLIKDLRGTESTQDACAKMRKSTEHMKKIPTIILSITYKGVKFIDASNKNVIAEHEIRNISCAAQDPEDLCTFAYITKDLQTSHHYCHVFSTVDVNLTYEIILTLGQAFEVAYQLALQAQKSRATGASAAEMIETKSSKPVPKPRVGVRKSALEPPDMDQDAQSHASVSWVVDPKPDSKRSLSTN


How the values were obtained:
FLAG-RIN2 = target: T1, FLAG-RIN2; assay: co-IP; HEK293T co-transfected with FLAG-RIN1, RIN2, RIN3 or RINL and myc-amphiphysin II; lysates immunoprecipitated with anti-FLAG, blotted with anti-myc and anti-FLAG
FLAG-RIN3 = target: T2, FLAG-RIN3; assay: as above
[1] = target: T3, endogenous odin (HeLa) (human (endogenous in HeLa)); assay: co-IP; HeLa cell lysates immunoprecipitated with anti-odin antibody or normal rat IgG; endogenous proteins

Row | Binder | binding (FLAG-RIN2) | binding (FLAG-RIN3) | binding [1]
1 | myc-amphiphysin II (protein, UniProt O00499 1-593) MAEMGSKGVTAGKIASNVQKKLTRAQEKVLQKLGKADETKDEQFEQCVQNFNKQLTEGTRLQKDLRTYLASVKAMHEASKKLNECLQEVYEPDWPGRDEANKIAENNDLLWMDYHQKLVDQALLTMDTYLGQFPDIKSRIAKRGRKLVDYDSARHHYESLQTAKKKDEAKIAKPVSLLEKAAPQWCQGKLQAHLVAQTNLLRNQAEEELIKAQKVFEEMNVDLQEELPSLWNSRVGFYVNTFQSIAGLEENFHKEMSKLNQNLNDVLVGLEKQHGSNTFTVKAQPSDNAPAKGNKSPSPPDGSPAATPEIRVNHEPEPAGGATPGATLPKSPSQLRKGPPVPPPPKHTPSKEVKQEQILSLFEDTFVPEISVTTPSQFEAPGPFSEQASLLDLDFDPLPPVTSPVKAPTPSGQSIPWDLWEPTESPAGSLPSGEPSAAEGTFAVSWPSQTAEPGPAQPAEASEVAGGTQPAAGAQEPGETAASEAASSSLPAVVVETFPATVNGTVEGGSGAGRLDLPPGFMFKVQAQHDYTATDTDELQLKAGDVVLVIPFQNPEEQDEGWLMGVKESDWNQHKELEKCRGVFPENFTERVP | binds | binds | –
2 | endogenous RINL (HeLa) (protein, UniProt Q6ZS11 1-566) MAQPEDKAPEVPTEGVRLVPPQVNKADRTPLGVLSTLEPLTRLQRTWGVWHVPELDTQDAEALVGLWPLGSFLVTGRDPSQALVLRSGPLPGEVNTYQIQKIPRGVSLESSNLCMPDLPHLLAFLSASRDVLPRTLLLPPPTLGPRDEHTDPVQIGRVQQDTPGKVLSIVNQLYLETHRGWGREQTPQETEPEAAQRHDPAPRNPAPHGVSWVKGPLSPEVDHPGPALASLLEEEEEDLEGKEEGREDDPEEEGPEDVLTIHVQSLVRARSSYVARQYRSLRVRIASDSGGPHGSGDPATELLQDVRHLLTDLQDHLAKDSYIRAVFGSRGPGLPKKDEDPGPALETAVCQAVLAPLKPALWTRLRTLRAPELRRLRRRQTALRAGAGPPGAQGPGPEGQSPAPALRSRIHERLAHLHAACAPRRKVALLLEVCRDVYAGLARGENQDPLGADAFLPALTEELIWSPDIGDTQLDVEFLMELLDPDELRGEAGYYLTTWFGALHHIAHYQPETDRAPRGLSSEARASLHQWHRRRTLHRKDHPRAQANLPFKEPWAEETVTGTSDN | – | – | binds
